The target in assay [1] is Flag-tagged Mal (MyD88 adaptor-like; TIRAP) (UniProt P58753). The assay is described as follows: co-immunoprecipitation from 293T cells: anti-GFP IP of TRAM-CFP, blot for Flag.
The target in assay [2] is Flag-tagged Mal-P125H (dominant negative mutant) (UniProt P58753). The description is as above.
For assay [3], the target named is Flag-tagged TRIF (TIR domain-containing adaptor inducing IFN-beta) (UniProt Q8IUC6). The assay is described as above.
Assay [4] addresses Flag-tagged Mal (MyD88 adaptor-like; TIRAP) (UniProt P58753). The assay is described as follows: co-immunoprecipitation from 293T cells: anti-GFP IP of TRIF-CFP, blot for Flag.
The target in assay [5] is Flag-tagged Mal-P125H (dominant negative mutant) (UniProt P58753). The assay is described as above.
The target in assay [6] is T1, interferon regulatory factor 3 (IRF-3) (UniProt Q14653).
T1 sequence (looked up): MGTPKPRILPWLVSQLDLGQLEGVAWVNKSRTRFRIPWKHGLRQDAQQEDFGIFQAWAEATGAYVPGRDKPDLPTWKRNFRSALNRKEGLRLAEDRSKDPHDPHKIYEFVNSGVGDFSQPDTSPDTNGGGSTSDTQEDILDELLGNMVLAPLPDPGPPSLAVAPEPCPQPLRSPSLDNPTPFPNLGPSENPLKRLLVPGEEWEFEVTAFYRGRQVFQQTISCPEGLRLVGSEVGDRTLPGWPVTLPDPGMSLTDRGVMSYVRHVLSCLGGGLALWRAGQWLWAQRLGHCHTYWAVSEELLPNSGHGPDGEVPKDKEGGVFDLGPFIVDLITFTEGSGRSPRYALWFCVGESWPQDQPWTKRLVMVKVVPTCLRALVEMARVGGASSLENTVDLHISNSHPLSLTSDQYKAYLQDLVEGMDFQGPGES
The assay is described as follows: co-immunoprecipitation from transfected HEK293 cells.

Protein sequences, listed by entry. Tags and fused reporters are not part of them. Residues count along the entry.
UniProt Q8IUC6: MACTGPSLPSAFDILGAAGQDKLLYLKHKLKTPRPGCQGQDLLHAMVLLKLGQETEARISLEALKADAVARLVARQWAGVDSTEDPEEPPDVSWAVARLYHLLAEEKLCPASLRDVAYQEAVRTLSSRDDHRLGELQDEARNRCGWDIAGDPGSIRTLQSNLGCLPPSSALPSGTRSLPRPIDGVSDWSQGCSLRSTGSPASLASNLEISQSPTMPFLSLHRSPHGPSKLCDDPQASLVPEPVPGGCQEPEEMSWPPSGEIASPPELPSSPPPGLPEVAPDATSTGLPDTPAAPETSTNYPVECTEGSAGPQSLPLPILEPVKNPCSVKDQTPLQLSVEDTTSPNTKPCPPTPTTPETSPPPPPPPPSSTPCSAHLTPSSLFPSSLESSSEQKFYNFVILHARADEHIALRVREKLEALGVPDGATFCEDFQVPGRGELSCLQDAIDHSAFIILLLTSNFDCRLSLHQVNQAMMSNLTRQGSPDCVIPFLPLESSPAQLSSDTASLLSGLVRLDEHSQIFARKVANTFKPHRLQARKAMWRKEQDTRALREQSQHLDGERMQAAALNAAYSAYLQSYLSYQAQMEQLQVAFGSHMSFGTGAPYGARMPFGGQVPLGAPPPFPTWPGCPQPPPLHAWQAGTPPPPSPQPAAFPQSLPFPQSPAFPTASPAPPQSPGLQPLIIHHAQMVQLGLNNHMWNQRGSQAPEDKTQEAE
UniProt O00206, residues 24-839: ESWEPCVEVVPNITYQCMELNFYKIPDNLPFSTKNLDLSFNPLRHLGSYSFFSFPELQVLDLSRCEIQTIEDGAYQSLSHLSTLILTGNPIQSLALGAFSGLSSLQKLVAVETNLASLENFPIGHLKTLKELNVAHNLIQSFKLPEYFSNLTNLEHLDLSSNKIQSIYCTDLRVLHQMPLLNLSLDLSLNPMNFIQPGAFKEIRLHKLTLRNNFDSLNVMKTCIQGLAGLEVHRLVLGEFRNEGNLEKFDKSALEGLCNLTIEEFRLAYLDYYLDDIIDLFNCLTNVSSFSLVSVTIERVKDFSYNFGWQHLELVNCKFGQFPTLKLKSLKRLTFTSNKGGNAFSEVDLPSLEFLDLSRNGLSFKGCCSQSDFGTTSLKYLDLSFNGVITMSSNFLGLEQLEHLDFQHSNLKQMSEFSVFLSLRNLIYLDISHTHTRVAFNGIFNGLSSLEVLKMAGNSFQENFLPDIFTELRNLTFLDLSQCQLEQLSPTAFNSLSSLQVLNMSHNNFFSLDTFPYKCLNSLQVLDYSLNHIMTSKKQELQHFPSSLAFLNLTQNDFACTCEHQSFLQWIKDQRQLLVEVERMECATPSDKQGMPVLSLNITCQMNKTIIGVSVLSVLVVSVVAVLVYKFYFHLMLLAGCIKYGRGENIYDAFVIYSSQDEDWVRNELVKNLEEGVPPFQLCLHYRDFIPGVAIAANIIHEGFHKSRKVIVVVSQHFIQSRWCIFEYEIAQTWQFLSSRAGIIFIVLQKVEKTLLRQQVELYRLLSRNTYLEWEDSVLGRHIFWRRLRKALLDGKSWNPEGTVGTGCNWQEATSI
UniProt Q86XR7: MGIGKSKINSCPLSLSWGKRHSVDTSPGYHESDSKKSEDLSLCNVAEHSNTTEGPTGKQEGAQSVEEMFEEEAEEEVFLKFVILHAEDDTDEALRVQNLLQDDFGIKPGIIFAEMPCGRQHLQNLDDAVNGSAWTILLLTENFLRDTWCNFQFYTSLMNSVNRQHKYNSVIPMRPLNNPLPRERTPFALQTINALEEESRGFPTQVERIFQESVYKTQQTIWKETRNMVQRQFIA

The target of assay [7] is T2, interferon regulatory factor 7 (IRF-7) (UniProt Q92985).
T2 sequence (looked up): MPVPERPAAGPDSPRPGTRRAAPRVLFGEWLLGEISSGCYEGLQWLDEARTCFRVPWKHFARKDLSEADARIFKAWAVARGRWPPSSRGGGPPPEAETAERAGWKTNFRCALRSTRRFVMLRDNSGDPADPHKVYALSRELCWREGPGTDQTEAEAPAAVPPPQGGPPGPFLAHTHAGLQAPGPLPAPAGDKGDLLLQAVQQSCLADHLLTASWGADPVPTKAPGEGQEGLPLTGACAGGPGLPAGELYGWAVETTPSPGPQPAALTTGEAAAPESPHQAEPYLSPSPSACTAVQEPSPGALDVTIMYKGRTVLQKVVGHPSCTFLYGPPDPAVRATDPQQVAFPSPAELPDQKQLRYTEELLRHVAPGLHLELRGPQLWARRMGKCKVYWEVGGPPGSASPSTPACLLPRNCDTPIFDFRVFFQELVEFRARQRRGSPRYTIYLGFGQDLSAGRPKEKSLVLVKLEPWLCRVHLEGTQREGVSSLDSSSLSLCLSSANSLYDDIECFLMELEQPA
The assay is described as follows: co-immunoprecipitation, similar experiments using IRF-7.

For assay [8], the target named is TLR4-YFP (Toll-Like Receptor 4 fused to yellow fluorescent polypeptide), stably expressed in HELA cells (UniProt O00206). The assay is described as follows: co-immunoprecipitation from TLR4-YFP HELA cell lysates: anti-GFP IP, blot for Flag.
Assay [9] deals with T1, interferon regulatory factor 3 (IRF-3). The assay is described as follows: co-immunoprecipitation from transfected HEK293 cells: anti-IRF-3 IP, blot for Flag; confirmed by the reverse anti-Flag IP, blot for IRF-3.
Assay [10] deals with TRAM (as used in GST-pull down experiments) (UniProt Q86XR7). The assay is described as follows: GST-pull down.

These are yes or no findings as the source states them, for the method shown. For part of these data: In cells and extracts the contact can be indirect. Some entries that bind do so weakly or less than the wild type.

Regarding “TRAM-CFP (human TRAM fused in-frame with cyan fluorescent polypeptide) (from UniProt Q86XR7 1-235)”, the binding entry in [1], in assay [2] and in assay [3] was “binds” each time.
Take “TRIF-CFP (TRIF fused to cyan fluorescent polypeptide) (from UniProt Q8IUC6 1-712)”: the binding entry in [4] and in [5] was “binds” each time.
“Flag-tagged TRIF (TIR domain-containing adaptor inducing IFN-beta) (from UniProt Q8IUC6 1-712)”: the binding entry in [6] and in assay [7] was “binds” each time.
As for “Flag-tagged TRAM (TRIF-related adaptor molecule), human (from UniProt Q86XR7 1-235)”, the binding entry in assay [7], in assay [8] and in [9] was “binds” each time.
On to “Mal (as used in GST-pull down experiments) (from UniProt P58753 1-235)”, for which the binding result in assay [10] is on record as “binds”.

B1: Flag-tagged Mal (MyD88 adaptor-like; TIRAP) (other, UniProt P58753-2 1-235, looked up)
chain: MASSTSLPAPGSRPKKPLGKMADWFRQTLLKKPKKRPNSPESTSSDASQPTSQDSPLPPSLSSVTSPSLPPTHASDSGSSRWSKDYDVCVCHSEEDLVAAQDLVSYLEGSTASLRCFLQLRDATPGGAIVSELCQALSSSHCRVLLITPGFLQDPWCKYQMLQALTEAPGAEGCTIPLLSGLSRAAYPPELRFMYYVDGRGPDGGFRQVKEAVMRCKLLQEGEGERDSATVSDLL
notes: pEF-Bos-Flag Mal as described in Fitzgerald et al; also called Flag-Mal; pEF-Bos-Flag Mal; not shown: Flag tag
In the case of B1, in [8], the binding entry was “binds”.

The record behind these values is patent US20050158799A1 (published 2005).
